The supplement of paper PMC12595434, “Development of retinoid nuclear receptor pathway antagonists through targeting aldehyde dehydrogenase 1A3” (iScience, 2025)
Some of the results follow. This is a noisy data set.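 Tm was set to 64 °C where no melting was found, and many curves are irregular.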

Amino acid sequences for entries named in this document (tags omitted). A change or cut given only in a name is not applied to a line headed by its entry.
UniProt Q53H12: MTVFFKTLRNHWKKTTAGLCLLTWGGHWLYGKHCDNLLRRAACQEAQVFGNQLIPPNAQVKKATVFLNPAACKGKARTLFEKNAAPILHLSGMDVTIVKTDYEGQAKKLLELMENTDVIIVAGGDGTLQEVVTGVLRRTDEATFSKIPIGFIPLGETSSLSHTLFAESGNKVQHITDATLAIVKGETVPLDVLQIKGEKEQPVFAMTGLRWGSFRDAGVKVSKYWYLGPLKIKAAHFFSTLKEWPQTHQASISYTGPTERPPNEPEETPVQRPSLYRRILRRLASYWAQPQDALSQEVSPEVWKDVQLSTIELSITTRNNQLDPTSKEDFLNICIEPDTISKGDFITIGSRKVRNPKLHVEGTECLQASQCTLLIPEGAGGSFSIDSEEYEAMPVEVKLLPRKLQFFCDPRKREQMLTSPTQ
UniProt Q53ET0: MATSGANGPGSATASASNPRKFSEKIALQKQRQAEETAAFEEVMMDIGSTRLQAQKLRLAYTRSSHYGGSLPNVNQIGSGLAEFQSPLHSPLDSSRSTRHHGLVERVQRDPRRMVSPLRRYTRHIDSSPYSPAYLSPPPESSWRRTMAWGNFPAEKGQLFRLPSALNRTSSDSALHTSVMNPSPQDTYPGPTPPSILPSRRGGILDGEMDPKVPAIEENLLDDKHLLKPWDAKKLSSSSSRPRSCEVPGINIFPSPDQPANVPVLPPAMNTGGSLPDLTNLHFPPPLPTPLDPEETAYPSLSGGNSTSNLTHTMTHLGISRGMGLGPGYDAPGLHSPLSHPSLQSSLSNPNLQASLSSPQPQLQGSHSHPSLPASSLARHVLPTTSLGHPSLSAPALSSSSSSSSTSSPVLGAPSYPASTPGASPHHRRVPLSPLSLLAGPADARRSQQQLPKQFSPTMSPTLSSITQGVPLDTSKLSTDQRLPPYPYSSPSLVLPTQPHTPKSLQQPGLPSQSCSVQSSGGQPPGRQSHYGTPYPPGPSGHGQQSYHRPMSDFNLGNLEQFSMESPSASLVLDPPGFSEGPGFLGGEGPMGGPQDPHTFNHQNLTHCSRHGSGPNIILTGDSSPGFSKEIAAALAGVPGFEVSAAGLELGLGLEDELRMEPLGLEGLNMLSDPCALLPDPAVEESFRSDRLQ
UniProt Q16644, whole entry, looked up: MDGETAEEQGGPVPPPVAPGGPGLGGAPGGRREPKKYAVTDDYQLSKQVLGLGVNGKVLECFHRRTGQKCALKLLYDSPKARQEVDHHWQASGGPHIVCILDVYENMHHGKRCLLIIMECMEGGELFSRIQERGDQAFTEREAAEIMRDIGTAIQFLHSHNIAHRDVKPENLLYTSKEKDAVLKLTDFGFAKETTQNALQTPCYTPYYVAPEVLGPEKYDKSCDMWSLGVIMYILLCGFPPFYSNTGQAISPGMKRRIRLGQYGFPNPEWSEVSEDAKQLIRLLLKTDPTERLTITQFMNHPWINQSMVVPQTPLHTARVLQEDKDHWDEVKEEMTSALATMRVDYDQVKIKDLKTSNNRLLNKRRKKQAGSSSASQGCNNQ
UniProt Q16851: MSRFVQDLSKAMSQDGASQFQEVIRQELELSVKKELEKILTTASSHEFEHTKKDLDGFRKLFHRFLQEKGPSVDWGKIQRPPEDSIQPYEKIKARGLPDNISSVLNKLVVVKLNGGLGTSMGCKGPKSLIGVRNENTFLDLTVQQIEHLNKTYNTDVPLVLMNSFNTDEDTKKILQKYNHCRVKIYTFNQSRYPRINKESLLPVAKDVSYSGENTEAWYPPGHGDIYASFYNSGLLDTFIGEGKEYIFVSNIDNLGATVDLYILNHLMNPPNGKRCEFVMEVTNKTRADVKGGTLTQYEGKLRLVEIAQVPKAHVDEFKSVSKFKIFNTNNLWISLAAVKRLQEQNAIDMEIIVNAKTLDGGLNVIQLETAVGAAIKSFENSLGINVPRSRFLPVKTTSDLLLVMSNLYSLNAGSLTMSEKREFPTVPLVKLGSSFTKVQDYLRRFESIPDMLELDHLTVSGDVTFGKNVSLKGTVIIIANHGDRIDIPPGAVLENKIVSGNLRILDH
UniProt Q15633: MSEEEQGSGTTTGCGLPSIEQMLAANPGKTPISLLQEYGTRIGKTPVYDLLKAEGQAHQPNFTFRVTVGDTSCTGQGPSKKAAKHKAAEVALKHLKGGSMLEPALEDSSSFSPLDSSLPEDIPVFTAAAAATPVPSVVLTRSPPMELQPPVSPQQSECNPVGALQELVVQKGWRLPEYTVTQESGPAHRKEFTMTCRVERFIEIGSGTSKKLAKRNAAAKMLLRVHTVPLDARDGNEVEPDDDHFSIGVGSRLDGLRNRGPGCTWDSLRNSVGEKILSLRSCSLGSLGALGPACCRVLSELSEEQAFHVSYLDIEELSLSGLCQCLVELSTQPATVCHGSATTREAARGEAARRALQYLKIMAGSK
UniProt Q15906, whole entry: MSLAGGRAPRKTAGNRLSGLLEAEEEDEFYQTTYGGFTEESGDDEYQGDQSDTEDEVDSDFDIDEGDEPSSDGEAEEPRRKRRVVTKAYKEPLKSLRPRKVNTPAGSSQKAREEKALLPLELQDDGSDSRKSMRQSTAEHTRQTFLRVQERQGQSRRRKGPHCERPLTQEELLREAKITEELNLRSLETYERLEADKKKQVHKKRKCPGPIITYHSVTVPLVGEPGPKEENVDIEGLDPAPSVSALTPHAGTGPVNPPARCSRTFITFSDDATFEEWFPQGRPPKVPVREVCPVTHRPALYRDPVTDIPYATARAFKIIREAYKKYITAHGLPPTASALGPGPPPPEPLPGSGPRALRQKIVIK
UniProt Q16875: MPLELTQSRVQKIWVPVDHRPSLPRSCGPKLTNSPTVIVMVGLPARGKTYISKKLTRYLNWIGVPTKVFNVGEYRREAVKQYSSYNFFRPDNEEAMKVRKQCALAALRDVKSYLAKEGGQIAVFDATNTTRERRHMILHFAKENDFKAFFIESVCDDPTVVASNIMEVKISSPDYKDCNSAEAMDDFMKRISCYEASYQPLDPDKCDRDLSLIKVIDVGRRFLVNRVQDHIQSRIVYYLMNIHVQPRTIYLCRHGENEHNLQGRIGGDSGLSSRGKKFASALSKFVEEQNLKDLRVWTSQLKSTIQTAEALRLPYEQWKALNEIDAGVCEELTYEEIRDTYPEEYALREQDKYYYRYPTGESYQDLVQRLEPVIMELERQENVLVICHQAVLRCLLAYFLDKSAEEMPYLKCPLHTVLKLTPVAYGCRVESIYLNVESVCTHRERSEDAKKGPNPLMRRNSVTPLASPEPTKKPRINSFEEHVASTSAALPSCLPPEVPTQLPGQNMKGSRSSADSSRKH
UniProt Q15528: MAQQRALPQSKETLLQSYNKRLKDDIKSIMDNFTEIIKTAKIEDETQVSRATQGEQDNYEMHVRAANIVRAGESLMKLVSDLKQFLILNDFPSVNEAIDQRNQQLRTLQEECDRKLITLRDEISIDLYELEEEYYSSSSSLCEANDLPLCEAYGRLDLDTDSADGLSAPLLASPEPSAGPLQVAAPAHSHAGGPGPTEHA
UniProt Q56P03: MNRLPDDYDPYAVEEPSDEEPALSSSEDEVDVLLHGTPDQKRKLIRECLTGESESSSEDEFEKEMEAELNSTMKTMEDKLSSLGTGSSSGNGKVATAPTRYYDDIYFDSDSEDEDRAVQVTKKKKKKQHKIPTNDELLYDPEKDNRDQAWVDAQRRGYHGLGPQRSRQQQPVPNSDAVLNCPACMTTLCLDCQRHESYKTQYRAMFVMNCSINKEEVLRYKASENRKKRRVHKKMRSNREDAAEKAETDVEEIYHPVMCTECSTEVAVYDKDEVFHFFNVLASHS
UniProt Q15643: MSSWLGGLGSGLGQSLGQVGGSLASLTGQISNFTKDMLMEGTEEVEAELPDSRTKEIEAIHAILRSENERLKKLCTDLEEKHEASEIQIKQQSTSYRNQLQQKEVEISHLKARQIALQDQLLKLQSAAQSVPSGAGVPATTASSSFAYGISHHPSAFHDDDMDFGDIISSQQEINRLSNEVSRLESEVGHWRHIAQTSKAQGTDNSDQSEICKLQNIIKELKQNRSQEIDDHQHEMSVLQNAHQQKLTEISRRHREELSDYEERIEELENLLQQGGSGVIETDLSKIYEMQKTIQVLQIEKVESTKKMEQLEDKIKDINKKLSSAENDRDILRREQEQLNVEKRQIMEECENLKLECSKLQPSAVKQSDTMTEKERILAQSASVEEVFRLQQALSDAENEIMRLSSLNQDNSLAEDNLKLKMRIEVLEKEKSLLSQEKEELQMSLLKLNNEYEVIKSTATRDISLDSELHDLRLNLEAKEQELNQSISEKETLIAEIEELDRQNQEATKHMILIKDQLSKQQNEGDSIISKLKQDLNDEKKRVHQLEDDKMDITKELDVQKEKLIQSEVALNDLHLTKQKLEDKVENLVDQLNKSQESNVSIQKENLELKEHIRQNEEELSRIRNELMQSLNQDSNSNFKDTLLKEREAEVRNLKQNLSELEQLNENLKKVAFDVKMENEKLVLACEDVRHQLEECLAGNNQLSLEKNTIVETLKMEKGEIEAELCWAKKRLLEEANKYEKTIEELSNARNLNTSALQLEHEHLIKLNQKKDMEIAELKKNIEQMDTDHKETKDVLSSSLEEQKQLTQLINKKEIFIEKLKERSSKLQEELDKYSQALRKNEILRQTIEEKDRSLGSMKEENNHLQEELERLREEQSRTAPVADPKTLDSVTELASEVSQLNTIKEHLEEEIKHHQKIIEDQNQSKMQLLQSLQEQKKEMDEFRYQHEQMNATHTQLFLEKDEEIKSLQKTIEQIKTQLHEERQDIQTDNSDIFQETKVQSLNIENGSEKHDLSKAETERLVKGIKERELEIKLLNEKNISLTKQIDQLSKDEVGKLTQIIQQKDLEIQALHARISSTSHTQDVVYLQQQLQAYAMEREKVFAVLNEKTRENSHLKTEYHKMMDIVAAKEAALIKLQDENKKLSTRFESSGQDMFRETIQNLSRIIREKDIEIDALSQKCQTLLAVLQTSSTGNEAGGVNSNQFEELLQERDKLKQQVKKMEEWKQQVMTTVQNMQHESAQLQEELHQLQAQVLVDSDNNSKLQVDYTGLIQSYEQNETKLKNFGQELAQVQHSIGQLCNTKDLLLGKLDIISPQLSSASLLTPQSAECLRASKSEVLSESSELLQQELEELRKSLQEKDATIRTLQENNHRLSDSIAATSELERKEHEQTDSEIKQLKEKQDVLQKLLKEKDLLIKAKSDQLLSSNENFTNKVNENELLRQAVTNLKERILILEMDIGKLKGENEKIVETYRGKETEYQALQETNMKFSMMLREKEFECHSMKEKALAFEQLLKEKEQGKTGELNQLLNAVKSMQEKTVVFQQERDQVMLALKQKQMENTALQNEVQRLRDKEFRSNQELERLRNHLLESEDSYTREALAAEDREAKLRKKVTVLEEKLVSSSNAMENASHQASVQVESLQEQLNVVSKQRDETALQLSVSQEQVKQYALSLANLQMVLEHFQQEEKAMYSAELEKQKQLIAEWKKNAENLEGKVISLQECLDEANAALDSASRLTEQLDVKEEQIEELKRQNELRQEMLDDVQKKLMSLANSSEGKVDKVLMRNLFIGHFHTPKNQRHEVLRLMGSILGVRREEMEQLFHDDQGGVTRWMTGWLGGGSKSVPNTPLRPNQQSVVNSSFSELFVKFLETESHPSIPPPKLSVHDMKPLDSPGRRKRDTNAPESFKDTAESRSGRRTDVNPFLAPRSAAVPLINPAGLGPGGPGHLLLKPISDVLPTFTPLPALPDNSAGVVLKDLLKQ
UniProt Q15776: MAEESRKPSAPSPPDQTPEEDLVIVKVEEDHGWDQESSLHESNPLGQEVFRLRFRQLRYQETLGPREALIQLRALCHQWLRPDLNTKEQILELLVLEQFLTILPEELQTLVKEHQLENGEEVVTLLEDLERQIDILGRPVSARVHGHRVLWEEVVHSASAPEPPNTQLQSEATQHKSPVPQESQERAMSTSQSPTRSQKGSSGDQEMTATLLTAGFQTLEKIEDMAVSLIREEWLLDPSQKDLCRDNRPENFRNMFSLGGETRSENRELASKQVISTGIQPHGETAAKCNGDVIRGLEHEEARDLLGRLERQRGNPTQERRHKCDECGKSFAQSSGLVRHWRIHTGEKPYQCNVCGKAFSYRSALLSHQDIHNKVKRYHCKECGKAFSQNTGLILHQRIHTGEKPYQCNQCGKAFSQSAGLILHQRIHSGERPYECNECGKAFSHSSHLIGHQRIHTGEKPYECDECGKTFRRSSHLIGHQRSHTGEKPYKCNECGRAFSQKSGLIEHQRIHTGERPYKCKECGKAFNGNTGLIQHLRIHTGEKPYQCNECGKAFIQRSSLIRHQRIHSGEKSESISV
UniProt Q15691: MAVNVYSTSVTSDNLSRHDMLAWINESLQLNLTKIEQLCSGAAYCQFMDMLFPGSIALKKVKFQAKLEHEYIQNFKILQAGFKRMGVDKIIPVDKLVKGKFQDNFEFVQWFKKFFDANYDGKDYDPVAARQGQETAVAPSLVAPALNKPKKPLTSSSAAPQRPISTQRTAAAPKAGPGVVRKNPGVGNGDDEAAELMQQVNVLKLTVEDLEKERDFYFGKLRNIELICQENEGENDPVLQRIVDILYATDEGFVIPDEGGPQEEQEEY

Compound: CCc1cnccc1C(=O)Nc1cc2c(cc1F)NC(=O)CC2
Assay: melting temperature shift (DMSO Tm minus MBE1-treated Tm) in cellular thermal proteome profiling; higher = less thermal stabilization by MBE1 (negative = stabilized by MBE1)
Conditions: A375

Target	melting temperature shift (MBE1 concentration: 100 nM) [°C]	melting temperature shift (MBE1 concentration: 1 uM) [°C]
MAPK14 (UniProt Q16539)	-0.574	-0.372
RNPS1 (UniProt Q15287)	-0.434	-1.58
UniProt Q53HV7	0.409	0.33
DHCR24 (UniProt Q15392)	1.03	1.11
UniProt Q16773	-2.13	-2.14
UniProt Q15788	0.238	3.52
ACSF3 (UniProt Q4G176)	-0.461	-0.942
UniProt Q49MG5	-1.94	1.81
MED1 (UniProt Q15648)	0.171	0.556
RHEB (UniProt Q15382)	-1.01	-0.215
KIAA1033 (UniProt Q2M389)	-0.0188	-0.169
AGK (UniProt Q53H12)	-0.872	0.309
PWP2 (UniProt Q15269)	0.055	-0.256
DDR2 (UniProt Q16832)	2.37	-0.647
CEP55 (UniProt Q53EZ4)	-0.807	-0.198
PTPRK (UniProt Q15262)	-5.85	0.289
ELAVL1 (UniProt Q15717)	-0.574	-0.579
SEC23A (UniProt Q15436)	0.128	-0.287
SMN1 (UniProt Q16637)	-0.0847	-0.353
UniProt Q15139	1.97	0.586
COBLL1 (UniProt Q53SF7)	0.0183	0.745
UniProt Q3T8J9	-5.35	0.628
PUM3 (UniProt Q15397)	-0.0513	-0.263
GLYR1 (UniProt Q49A26)	-0.449	-0.182

4 records picked at random from those above:
Target	melting temperature shift (MBE1 concentration: 100 nM) [°C]	melting temperature shift (MBE1 concentration: 1 uM) [°C]
PTPRK (UniProt Q15262)	-5.85	0.289
UniProt Q49MG5	-1.94	1.81
SEC23A (UniProt Q15436)	0.128	-0.287
PUM3 (UniProt Q15397)	-0.0513	-0.263

(further entries)

Target	melting temperature shift (MBE1 concentration: 100 nM) [°C]	melting temperature shift (MBE1 concentration: 1 uM) [°C]
ETFDH (UniProt Q16134)	-0.597	-0.309
PGS1 (UniProt Q32NB8)	0.644	0.482
PMVK (UniProt Q15126)	0.333	-0.0769
UniProt Q15773	-0.41	-0.404
KYNU (UniProt Q16719)	-0.462	1.13
UniProt Q15843	-2.21	-1.71
AKIRIN2 (UniProt Q53H80)	-1.33	0.295
SEC23B (UniProt Q15437)	1.2	-0.0488
UniProt Q53ET0	-1.32	-1.84
SRSF7 (UniProt Q16629)	-1.43	-1.03
PCBP2 (UniProt Q15366)	-0.48	-0.416
MAPKAPK3 (UniProt Q16644)	-1.2	-1.21
PPP2R5E (UniProt Q16537)	-0.11	-0.171
ALDH1L2 (UniProt Q3SY69)	1.57	0.91
PYCRL (UniProt Q53H96)	-1.11	-0.174
NADK2 (UniProt Q4G0N4)	-0.421	0.983
C5ORF22 (UniProt Q49AR2)	-0.315	0.369
IMMT (UniProt Q16891)	-0.818	0.342
CPSF6 (UniProt Q16630)	-1.05	-1.3
EZH2 (UniProt Q15910)	-0.506	-0.16
UniProt Q53GS7	-0.616	0.212
ARHGAP29 (UniProt Q52LW3)	-8.97	-5.58
FAM98B (UniProt Q52LJ0)	1.12	0.727
UGP2 (UniProt Q16851)	-0.708	0.305

Target	melting temperature shift (MBE1 concentration: 100 nM) [°C]	melting temperature shift (MBE1 concentration: 1 uM) [°C]
TSSC1 (UniProt Q53HC9)	-0.805	0.0402
UniProt Q4AC94	-0.382	1
LACTB2 (UniProt Q53H82)	-4.13	-4.83
HSD17B12 (UniProt Q53GQ0)	-1.2	-0.389
UBE2S (UniProt Q16763)	0.14	0.605
UBE2V2 (UniProt Q15819)	-1.04	0.0268
TARBP2 (UniProt Q15633)	0.302	-1.16
VPS72 (UniProt Q15906)	-0.92	-0.85
TRADD (UniProt Q15628)	-0.734	-0.141
FXN (UniProt Q16595)	-1.13	-2.4
UniProt Q16877	1.11	0.116
E2F4 (UniProt Q16254)	0.232	-0.415
TYSND1 (UniProt Q2T9J0)	-1.28	-0.287
OXA1L (UniProt Q15070)	-0.44	-0.55
PCK2 (UniProt Q16822)	-0.59	0.0794
TPD52L1 (UniProt Q16890)	-2.21	-4.25
UniProt Q2VPB7	-2.16	0.306
HS1BP3 (UniProt Q53T59)	0.0047	-0.296
UniProt Q53G59	1.47	0.751
PFKFB3 (UniProt Q16875)	-0.667	0.0488
LRRC41 (UniProt Q15345)	-0.95	-0.128
UniProt Q17R31	-1.1	0.459
WDR81 (UniProt Q562E7)	-1.02	-0.0235
MRPL51 (UniProt Q4U2R6)	-1.83	-2.54

Target	melting temperature shift (MBE1 concentration: 100 nM) [°C]	melting temperature shift (MBE1 concentration: 1 uM) [°C]
UniProt Q15506	-9.26	-4.36
SETMAR (UniProt Q53H47)	-1.41	0.933
PREPL (UniProt Q4J6C6)	-0.581	0.36
FUT11 (UniProt Q495W5)	-0.785	1.22
UniProt Q2NKJ3	-0.214	0.586
LGALSL (UniProt Q3ZCW2)	0.604	0.154
UniProt Q53F19	-0.275	0.237
UniProt Q15361	0.0128	0.5
UniProt Q15528	0.269	-0.842
TAB1 (UniProt Q15750)	-0.0659	-0.0518
SF1 (UniProt Q15637)	-1.49	0.154
ATP6AP1 (UniProt Q15904)	-1.13	0.563
UniProt Q15208	0.0988	-0.212
TCEB1 (UniProt Q15369)	-0.694	-0.0794
PEA15 (UniProt Q15121)	-0.183	-0.8
UniProt Q3KRA6	1.13	0.122
RABEP1 (UniProt Q15276)	0.342	0.165
DDB1 (UniProt Q16531)	-0.378	-0.839
UniProt Q562F6	0.177	-0.427
UniProt Q53EU6	0.708	0.397
TSR1 (UniProt Q2NL82)	-1.01	-0.397
UniProt Q16363	0.125	-0.174
UniProt Q4ADV7	0.275	0.281
UniProt Q15417	0.195	-0.519

Target	melting temperature shift (MBE1 concentration: 100 nM) [°C]	melting temperature shift (MBE1 concentration: 1 uM) [°C]
EAPP (UniProt Q56P03)	0.134	-0.0244
PAFAH1B3 (UniProt Q15102)	0.366	1.07
UBE3C (UniProt Q15386)	0.684	-0.47
SURF2 (UniProt Q15527)	0.539	-0.946
TRIP11 (UniProt Q15643)	-1.52	-0.946
UniProt Q2PPJ7	-0.696	-0.55
LLGL1 (UniProt Q15334)	-0.118	-1.07
UniProt Q1L5Z9	-0.263	-0.878
LARP7 (UniProt Q4G0J3)	0.446	-0.611
HAGH (UniProt Q16775)	-1.74	0.159
BRD3 (UniProt Q15059)	-0.87	-0.861
UniProt Q3MII6	0.278	0.108
PDIA6 (UniProt Q15084)	-0.623	0.372
RAB11B (UniProt Q15907)	-1.72	0.244
FNDC3B (UniProt Q53EP0)	-0.935	-0.442
UGT8 (UniProt Q16880)	-1.42	0.735
CCDC58 (UniProt Q4VC31)	-0.874	0.64
VPS26B (UniProt Q4G0F5)	-0.423	-0.0805
UniProt Q460N5	-0.672	-0.0256
UniProt Q53S08	-1.98	-1.8
WDR43 (UniProt Q15061)	-0.0827	-0.555
UniProt Q15776	-3.1	-0.154
MAPRE1 (UniProt Q15691)	0.269	0.0244
UniProt Q16512	0.568	-0.104
